Test results taken from PubChem BioAssay AID504834 (National Center for Advancing Translational Sciences (NCATS), 2011).
Screen size: about 320,000 compounds; about 22,000 (6.9%) were called active. Inconclusive results, whose numbers are uncertain, are shown with a selection of clear calls. The call rests on the fitted dose curve; in most records, active means well fitted inhibition curve with a large enough effect; inconclusive means small, poorly fitted or top-dose-only effect, or another doubt; inactive means no such curve, though single readings can be large or run the other way. Potencies of inconclusive entries are doubtful fits and often do not repeat.

assay: Primary qHTS for delayed death inhibitors of the malarial parasite plastid, 96 hour incubation; conditions: P. falciparum luciferase reporter growth; series mostly up to 28.7 µM
Method in brief: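 Two parasite generations (96 h, 37 C, 5% CO2) of compound exposure in infected erythrocytes (0.05% parasitemia, 2% hematocrit). Luciferase-reporter P. falciparum; decreased luminescence indicates inhibited growth, aimed at apicoplast-acting delayed death.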
On the % scale 0 is the no-effect control and ±100 the full control effect; potency means the concentration at half of the fitted maximal effect.

Compound | Potency | activity change, negative = inhibition
Cc1ccc(CNC(=O)C2CC(c3cccc([N+](=O)[O-])c3)=NO2)cc1 (configuration not stated) | inactive | –
CC(C)COC(=O)N1CCCC1C(=O)O (configuration not stated) | inconclusive: 10.4 µM [inhibitor, single point] | –
O=c1ccc2cc(S(=O)(=O)N3CCN(c4ccccc4F)CC3)ccc2o1 | inactive | –
COc1ccc(NC(=O)c2cccnc2SC)cc1S(=O)(=O)N1CCCCC1 | inconclusive: 10.4 µM [inhibitor, single point] | –
Cc1ccc2sc(-c3ccc(NC(=O)c4cc(-n5cnnc5)ccc4Cl)cc3)nc2c1 | inconclusive: 18.5 µM [inhibitor, single point] | –
O=C(NCCCO)C(=O)Nc1ccc2c(c1)N(S(=O)(=O)c1cccs1)CCC2 | inactive | –
CCCCCc1ccc(-c2cn(Cc3cccc(OC)c3)nn2)cc1 | inconclusive: 18.5 µM [inhibitor, single point] | –
COc1ccc(C2c3ccc4ccccc4c3Oc3ncn(CCO)c(=N)c32)cc1OC (configuration not stated) | inconclusive: 4.65 µM [inhibitor, partial curve] | –
CCOC(=O)n1c(O)c(N=NC(N)=S)c2cc(C)ccc21 | inactive | –
COc1cccc(Nc2nc(CC(C)=O)ns2)c1 | inconclusive: 0.0738 µM [inhibitor, full curve, poor fit] | –
Cc1ccc(C(=O)N/N=C\c2ccc(OC(=O)c3cccc(F)c3)cc2)cn1 | inconclusive: 8.28 µM [inhibitor, single point] | –
O=C(Nc1nccs1)C1CCN(S(=O)(=O)c2cnc[nH]2)CC1 | inconclusive: 18.5 µM [inhibitor, single point] | –
CC(OC(=O)c1nn(C)c(=O)c2ccccc12)C(=O)Nc1ccc(S(N)(=O)=O)cc1 (configuration not stated) | inactive | –
Cc1nn(Cc2ccccc2)c(C)c1/C=N/NC(=O)CNc1cccc(C(F)(F)F)c1 | inconclusive: 11.7 µM [inhibitor, partial curve, poor fit] | –
O=[N+]([O-])c1ccccc1/C=N/Nc1nc(N2CCCC2)nc(N2CCCC2)n1 | inconclusive: 18.5 µM [inhibitor, single point] | –
Cc1cccc(C)c1NC(=O)CN(C)C(=O)C1CC(=O)N(c2cccc3ccccc23)C1 (configuration not stated) | inconclusive: 16.5 µM [inhibitor, single point] | –
Cc1cccc(N(Cc2ccccc2)C(=O)Cc2ccc(S(=O)(=O)N3CCOCC3)s2)c1 | inconclusive: 3.29 µM [inhibitor, full curve] | –
COc1ccccc1CNC(=O)CN1C(=O)NC2(CCCc3ccccc32)C1=O (configuration not stated) | inactive | –
CCOC(=O)C1CCCN(S(=O)(=O)c2ccc3c(c2)NC(=O)CO3)C1 (configuration not stated) | inconclusive: 4.15 µM [inhibitor, single point] | –
CN(c1ccccc1C(=O)NC1CCCCC1)S(=O)(=O)c1ccccc1 | inconclusive: 11.7 µM [inhibitor, partial curve, poor fit] | –
C#CCOCCOCCOCCNc1nc(N2CCN(C(=O)C(Cc3cc4ccccc4[nH]3)n3cc(C(N)Cc4ccc(O)cc4)nn3)CC2)nc(N2CCN(C(=O)C(Cc3cc4ccccc4[nH]3)n3cc(C(N)Cc4ccc(O)cc4)nn3)CC2)n1 (configuration not stated) | inconclusive: 10.4 µM [inhibitor, single point] | –

Whole records as entered above:
O=C(Nc1nccs1)C1CCN(S(=O)(=O)c2cnc[nH]2)CC1 in the list: Potency: inconclusive: 18.5 µM [inhibitor, single point]
O=[N+]([O-])c1ccccc1/C=N/Nc1nc(N2CCCC2)nc(N2CCCC2)n1 in the list: Potency: inconclusive: 18.5 µM [inhibitor, single point]
COc1ccccc1CNC(=O)CN1C(=O)NC2(CCCc3ccccc32)C1=O (configuration not stated) in the list: Potency: inactive

The list continues.

Compound | Potency | activity change, negative = inhibition
CCc1cc(=O)oc2c3c(cc(OCC(=O)NCCCCCC(=O)O)c12)OC(C)(C)CC3 | inconclusive: 11.7 µM [inhibitor, partial curve] | –
Cc1cccc(C)c1NC(=O)CN(C)C(=O)[C@H](C)NC(=O)c1ccco1 | inactive | –
COc1cccc(C(=O)C2CCCN(C(=O)c3ccccn3)C2)c1 (configuration not stated) | inconclusive: 18.5 µM [inhibitor, single point] | –
CCC(=O)N1CCN(c2ccccc2NC(=O)COc2cccc(C)c2C)CC1 | inconclusive: 7.38 µM [inhibitor, partial curve] | –
Cc1onc(-c2ccccc2Cl)c1C(=O)N(C)CC(=O)Nc1ccc(F)c(F)c1F | inconclusive: 20.8 µM [inhibitor, single point] | –
Cc1ccnc2nc(C(=O)NCCc3ccc(F)cc3)nn12 | – | inactive: 14.5% [at 5.75 µM]
Nc1nonc1OCCOCCOCCOc1nonc1N | inconclusive: 4.15 µM [inhibitor, single point] | –
COc1ccccc1-n1c(SCC(=O)Nc2cccc(S(N)(=O)=O)c2)nc2ccccc2c1=O | inconclusive: 1.47 µM [inhibitor, full curve, poor fit] | –
CC[N+](C)(CC)CCC(c1ccccc1)C1CCCCC1 (configuration not stated) | inconclusive: 0.329 µM [inhibitor, full curve, poor fit] | –
O=C(Nc1cccs1)N1CCN(c2ncccn2)CC1 | inconclusive: 11.7 µM [inhibitor, partial curve, poor fit] | –
C[n+]1nc(Nc2ccccc2)sc1-c1ccc(O)cc1 | inactive | –
Cc1ccc(NC(=O)COC(=O)c2csc3c2CCC(C)C3)cc1S(=O)(=O)N1CCCCC1 (configuration not stated) | inactive | –
CCOC(=O)c1[nH]c(C)c(CN(C(C)=O)c2ccc(OCC)cc2)c1C | inactive | –
Clc1ccc(N2N=C(c3cccs3)CC2c2ccco2)cc1 (configuration not stated) | active: 2.62 µM | –
COC(=O)CCC(=O)NC(=S)Nc1cc(Cl)ccc1Cl | inactive | –
O=C(NCCN1CCOCC1)/C(=C/c1ccccc1)NC(=O)c1ccccc1 | inconclusive: 3.29 µM [inhibitor, partial curve, poor fit] | –
Cc1cccc(C)c1Nc1nnc(SC/C(O)=C(\C#N)c2nc3ccccc3[nH]2)s1 | inconclusive: 18.5 µM [inhibitor, single point] | –
Cc1c(/C(O)=C2/C(=O)C(=O)N(CCN3CCOCC3)C2c2cccs2)cnn1-c1ccccc1 (configuration not stated) | inactive | –
COc1cccc(-c2cc(C(=O)N3CCc4ccccc4C3)[nH]n2)c1 | inconclusive: 18.5 µM [inhibitor, single point] | –
NC1=NC2(CCCCCC2)n2c(nc3ccccc32)N1 | inconclusive: 0.0738 µM [inhibitor, full curve, poor fit] | –
CNC(=O)/C(C#N)=C\c1cc(C)n(-c2ccc(N3CCOCC3)cc2)c1C | inconclusive: 18.5 µM [inhibitor, single point] | –
